Taken from: PubChem BioAssay AID493246 (Drosophila RNAi Screening Center, 2011)
In all, the deposit lists about 21,000 reagents; this is a random part of those that have a named target and a result. Over the whole deposit, 429 (2%) were called active. 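Values are raw and not normalised between plates; calls rest on per-plate z-scores that were not deposited.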 Entries without a mark were called inactive. A plus sign joins genes that one reagent is predicted to hit. Reagent sequences are not shown. The record does not give: the amount of reagent, the time to read-out.

Test: 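Genes fly cells need to grow and stay alive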 (primary screen)
Cells: Drosophila Kc and S2R+ cells
Reagent: long dsRNA against Drosophila genes
Detection: 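Raw, unnormalised count of remaining cells in each well; per-plate z-scores of cell number underlie the calls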
Direction: Kc cell number and S2R+ cell number: higher = more cells remaining
Hit rule: 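Counted as a hit if cell number falls by a z-score of at least 3 within its plate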

gene	dsRNA	Kc cell number, rep 1	Kc cell number, rep 2	S2R+ cell number, rep 1	S2R+ cell number, rep 2
Nlg4	DRSC15108	1.40e6	1.40e6	1.03e6	1.14e6
Nlg4	DRSC15109	1.42e6	1.42e6	1.04e6	1.13e6
Nlg4	DRSC15700	1.40e6	1.47e6	1.02e6	1.09e6
Nlg4	DRSC15701	7.68e5 (active)	7.34e5	5.68e5	6.26e5
CG30031 + deltaTry + gammaTry	DRSC07622	1.75e6	1.77e6	1.21e6	1.36e6
Mco1	DRSC02720	1.45e6	1.55e6	1.19e6	1.35e6
CG9777	DRSC20208	1.56e6	1.63e6	1.14e6	1.19e6
Prosbeta6	DRSC11256	1.00e6 (active)	1.06e6	6.84e5	8.01e5
Trs20	DRSC10489	1.30e6	1.40e6	1.19e6	1.33e6
l(3)L1231	DRSC16323	1.44e6	1.47e6	1.18e6	1.16e6
CG12688 (retired record)	DRSC17877	1.35e6	1.35e6	9.55e5	1.07e6
CG12688 (retired record)	DRSC17878	1.27e6	1.32e6	1.03e6	1.17e6
inv	DRSC07633	1.83e6	1.77e6	1.15e6	1.40e6
CG34355	DRSC13639	1.20e6	1.35e6	1.05e6	1.17e6
CG34355	DRSC14520	1.52e6	1.47e6	9.70e5	1.03e6
CG34355	DRSC14668	1.52e6	1.46e6	9.82e5	1.09e6
CG2247	DRSC19844	5.26e5		7.85e5	
CG42490 (retired record)	DRSC01649	1.52e6	1.55e6	9.71e5	1.20e6
Acp26Ab	DRSC01856	1.53e6	1.39e6	1.12e6	1.24e6
CG13744	DRSC06415	1.60e6	1.72e6	1.07e6	1.18e6
CG14223	DRSC19580	1.54e6	1.55e6	1.16e6	1.28e6
Eo	DRSC20187	1.80e6	1.84e6	1.12e6	1.30e6
muskelin	DRSC07273	1.69e6	1.67e6	1.26e6	1.37e6
bsf	DRSC02035	1.23e6	1.30e6	1.27e6	1.21e6

2 successive entries already listed:
gene	dsRNA	Kc cell number, rep 1	Kc cell number, rep 2	S2R+ cell number, rep 1	S2R+ cell number, rep 2
muskelin	DRSC07273	1.69e6	1.67e6	1.26e6	1.37e6
bsf	DRSC02035	1.23e6	1.30e6	1.27e6	1.21e6
